# In paper PMC12040169 (PLOS Biology, 2025):
# Like-named read-outs stand apart in the source and are kept apart here. The list shows a part of the results.
# Test system: T1, CTL2-GFP (C. trachomatis L2/434/Bu, GFP-expressing)
# T1 construct: L2/434/Bu, GFP-expressing
# Design: species or system HeLa; Intracellular C. trachomatis growth in HeLa cells, bulk GFP fluorescence relative to DMSO
SMILES,"% of control remaining (28.5 h, 10 µM; inhibitor) [%]","% of control remaining (28.5 h, 10 µM, inhibitor) [%]"
CN(C(=O)c1ccc(Cl)c(Cl)c1)[C@H]1CCC[C@H]1N1CCCC1 [CBK003411C],11.667,
CC(=O)Nc1ccc(OC(=O)N2CCCCC2)cc1 [CBK090124],122.256,
Cc1ccc(Cl)c(OC(=O)NCCOC(=O)NO)c1 [CBK288417],100.01,
CNC(=O)Oc1cccc2cccnc12 [CBK015609],128.212,
CC[C@H](N)Cn1nc(-c2cccs2)oc1=O [CBK282393],147.149,
Cc1cc(/C=C2\C(=O)NC(=O)N(c3ccccc3F)C2=O)c(C)n1-c1cc(C(=O)O)cc(C(=O)O)c1 [CBK264028],100,
CC(C)NC(=O)Cn1cc(C(=O)COc2ccccc2)c2ccccc21 [CBK268317],141.612,
CC1=CC(C)C(COC(N)=O)(COC(N)=O)C(C)C1 (centres unmarked) [CBK020974],94.8938,
O=C(O)COc1ccc(/C=C2\C(=O)NC(=O)N(c3ccc(OCc4ccccc4)cc3)C2=O)cc1 [CBK265449],100,
CN(C)C(=O)c1ccc(Cn2nc(C(=O)NC3CC3)c3ccccc32)cc1 [CBK047720],100,
C=CCc1cc(/C=C2\C(=O)NC(=O)N(c3ccc4c(c3)OCO4)C2=O)cc(OC)c1OCC(=O)O [CBK264025],100,
O=C1CCCc2c1c1cccc(C(=O)O)c1n2Cc1ccccc1 [CBK002365],82.8471,
O=C(O)c1cc(N2C(=O)c3cccc4c([N+](=O)[O-])ccc(c34)C2=O)cc(N2C(=O)c3cccc4c([N+](=O)[O-])ccc(c34)C2=O)c1 [CBK262119],107.776,
O=C(COc1ccc(/C=C2\C(=O)NC(=O)N(c3ccc(O)cc3)C2=O)cc1Cl)Nc1ccccc1 [CBK265425],100,
O=C(Nc1ccc(NC(=O)c2cccc([N+](=O)[O-])c2)c(Cl)c1)c1cccc([N+](=O)[O-])c1 [CBK261196],101.215,
O=C1NC(=O)N(Cc2ccccc2)C(=O)/C1=N\Nc1ccc([N+](=O)[O-])cc1 [CBK261123],100,
CN(C)C(=O)Oc1cc(CN2CCCC2)c2ccn(S(=O)(=O)c3ccccc3)c2c1 [CBK137151T],102.547,
CC1(C)CC(=O)C(C2(O)C(=O)Nc3ccc(Br)cc32)CO1 (centres unmarked) [CBK263410],100,
O=P(O)(O)CCCc1ccccc1 [CBK012021],126.738,
Nc1nonc1OCC(COc1nonc1N)(COc1nonc1N)COc1nonc1N [CBK011044],124.681,
O=C(N[C@H]1CCN2C(=O)N(CCCl)C(=O)[C@@H]2C1)c1cccs1 [CBK289542],107.541,
COc1ccc(OC(=O)Nc2nn(Cc3ccc(C#N)cc3)c3ccc(C)cc23)cc1 [CBK048654],137.588,
CC(=O)c1c(C)[nH]c(C(=O)N2CCC(C#N)(c3ccccc3)CC2)c1C [CBK091404],100,
Cc1ccc(Cn2nc(C(=O)NCC3COc4ccccc4O3)c3ccccc32)cc1 (centres unmarked) [CBK047831],102.361,
CC(C)CN(/C=N/c1nc(OC(=O)N(c2ccccc2)c2ccccc2)nc2c1ncn2C1CC(O)C(CO)O1)CC(C)C (centres unmarked) [CBK201170],147.891,
O=C(Nc1ccc2c(c1)OC(F)(F)O2)c1nn(Cc2ccc(-c3csnn3)cc2)c2ccccc12 [CBK047877],75.0807,
O=C(/C=C/c1ccc(N2N=N2)cc1)/C=C/c1ccc(N2N=N2)cc1 [CBK261638],111.114,

# Entries from the list above containing sulfur, in the order listed:
SMILES,"% of control remaining (28.5 h, 10 µM; inhibitor) [%]","% of control remaining (28.5 h, 10 µM, inhibitor) [%]"
CC[C@H](N)Cn1nc(-c2cccs2)oc1=O [CBK282393],147.149,
CN(C)C(=O)Oc1cc(CN2CCCC2)c2ccn(S(=O)(=O)c3ccccc3)c2c1 [CBK137151T],102.547,
O=C(N[C@H]1CCN2C(=O)N(CCCl)C(=O)[C@@H]2C1)c1cccs1 [CBK289542],107.541,
O=C(Nc1ccc2c(c1)OC(F)(F)O2)c1nn(Cc2ccc(-c3csnn3)cc2)c2ccccc12 [CBK047877],75.0807,

# (list continues)

SMILES,"% of control remaining (28.5 h, 10 µM; inhibitor) [%]","% of control remaining (28.5 h, 10 µM, inhibitor) [%]"
Cc1ccc(Cn2nc(NC(=O)Oc3ccccc3)c3ccccc32)cc1 [CBK048407],161.629,
COc1cc(/C=C2\C(=O)NC(=O)N(c3ccc([N+](=O)[O-])cc3)C2=O)cc(Cl)c1OCC(=O)O [CBK265431],100,
CC(C)C(Nc1c([N+](=O)[O-])cc(C(F)(F)F)cc1[N+](=O)[O-])C(=O)O (centres unmarked) [CBK261041],104.681,
Cc1nnsc1C(=O)N[C@H]1CCN2C(=O)N(CCCl)C(=O)[C@@H]2C1 [CBK289550],150.238,
O=C(Nc1ccc(OC(=O)N2CCCCC2)cc1)N1CCCCC1 [CBK090060],109.564,
Cc1c([N+](=O)[O-])c([N+](=O)[O-])nn1CC(=O)NCc1cccnc1 [CBK262428],100,
CN(C)C(=O)Oc1ccc2[nH]c3c(c2c1)CCNC31CCN(CCOc2ccccc2)C1 (centres unmarked) [CBK107679],128.474,
CCC(=O)N(C[C@H]1CCC[C@@H]1N(C)C)c1ccc(Cl)c(Cl)c1 [CBK003408],102.09,
CC1CN(C(=O)COc2ccccc2OC(=O)N(C)C)CC(C)O1 (centres unmarked) [CBK057627],100.062,
O=C(O)c1cccc(NC(=O)c2cc([N+](=O)[O-])cc([N+](=O)[O-])c2)c1 [CBK261555],100,
CCN(CC)CCN/C=C1/C(=O)NC(=O)N(Cc2ccccc2)C1=O [CBK261624],100,
O=C(O)Cn1cc(C(=O)c2cccs2)c2ccccc21 [CBK287110],122.268,
S=C(Nc1ccc2nc3c4ccccc4c4ccccc4c3nc2c1)N1CCOCC1 [CBK263153],87.3122,
O=C1NC(=S)N(c2ccc(F)cc2)C(=O)/C1=C\NC1CCN(Cc2ccccc2)CC1 [CBK261825],100,
O=C(NO)Nc1ccc(Cl)c(Cl)c1 [CBK016929],88.1873,
CCOc1cc(C=C2C(=O)NC(=S)NC2=O)cc(Br)c1OCC(=O)O [CBK265411],100,
Cc1ccc(OCCn2cc(/C=C3/C(=O)NC(=O)N(Cc4ccco4)C3=O)c3ccccc32)cc1 [CBK263936],100,
O=C1C(=CNCCc2c[nH]c3ccccc23)C(=O)N(c2ccccc2)C(=S)N1c1ccccc1 [CBK265557],100,
COc1ccc(CCNCc2ccc([N+](=O)[O-])cc2)cc1OC [CBK262217],100,
COc1ccc(N2C(=O)NC(=O)/C(=C\c3ccc(O)c(O)c3)C2=O)cc1 [CBK261436],100,
CC(N)Cc1cn(C)c2ccccc12 (centres unmarked) [CBK012030C],125.824,
O=C1NC(=O)N(c2ccc(Cl)cc2)C(=O)/C1=C\NCCCO [CBK261648],100,
O=C(NN=C1CCCCC1)C(O)(c1ccccc1)c1ccccc1 [CBK261783],100,
CS(=O)(=O)c1ccc(-c2ccc3c(c2)CCN(C2CCN(C(=O)Oc4ccccc4)CC2)C3)cc1 [CBK169518],105.443,
Cc1ccccc1N1C(=O)NC(=O)/C(=C/NCCCn2ccnc2)C1=O [CBK261829],100,
O=C(O)c1cc(NC(=O)c2ccc3c(c2)C(=O)N(Cc2ccco2)C3=O)cc(C(=O)O)c1 [CBK267374],177.125,
O=C1NC(=O)C(=Cc2cc(Br)ccc2OCc2cccc(F)c2)C(=O)N1 [CBK264160],100,

SMILES,"% of control remaining (28.5 h, 10 µM; inhibitor) [%]","% of control remaining (28.5 h, 10 µM, inhibitor) [%]"
O=P(O)(O)/C=C(\Cl)c1ccccc1 [CBK261019],92.1065,
CONC(=O)c1nn(Cc2ccc(C)cc2)c2ccccc12 [CBK047848],105.192,
Cc1cccc(CNC(Cc2ccsc2)c2nccs2)n1 (centres unmarked) [CBK282697],100.389,
COC(=O)c1ccc(N2C(=O)NC(=O)/C(=C\c3ccccc3OCC(=O)O)C2=O)cc1 [CBK265459],100,
O=C(NC1CC1)c1nn(Cc2ccc(S(=O)(=O)N3CCCCC3)cc2)c2ccccc12 [CBK047820],114.258,
CCCN(CCCc1ccccc1)C1Cc2cc(OC)c(OC)cc2C1 [CBK017596C],128.302,
O=C(N[C@H]1CCN2C(=O)N(CCCl)C(=O)[C@@H]2C1)c1ccncc1 [CBK289551],112.192,
COc1ccccc1CCNCc1ccc([N+](=O)[O-])cc1 [CBK262292],100,
CCOc1cccc(N2C(=O)/C(=C\c3ccc(-c4ccc(C(=O)O)c(Cl)c4)o3)C(=O)NC2=S)c1 [CBK263403],100,
CSc1nnc(C(N)Cc2c[nH]c3ccccc23)o1 (centres unmarked) [CBK269950C],137.185,
CCOc1ccc(N2C(=O)NC(=O)/C(=C\NCCc3c[nH]c4ccccc34)C2=O)cc1 [CBK261125],100,
COc1cc(C(=O)N2CCC(N3C(=O)Cc4ccccc43)CC2)ccc1C [CBK155465],135.064,
CN(C)[C@@H]1C[C@H](C2(c3ccccc3)OCCO2)CC[C@H]1N(C)C(=O)Cc1ccc(Cl)c(Cl)c1 [CBK016338],127.658,
CS(=O)(=O)c1ccc(-c2ccc3c(c2)OCCN(C2CCN(C(=O)Oc4ccccc4)CC2)C3)cc1 [CBK169259],118.764,
O=C1NC(=O)N(c2ccc(O)cc2)C(=O)/C1=C/c1cc(Cl)c(OCc2ccccc2)c(Cl)c1 [CBK265385],100,
NC(=O)C(=O)c1cn(Cc2ccccc2)c2ccccc12 [CBK288473],128.191,
COc1ccc(N2C(=O)/C(=C/c3cc(C)n(-c4ccc(N5CCOCC5)cc4)c3C)C(=O)NC2=S)cc1 [CBK263798],100,
O=P(Nc1ccc(Cl)c(Cl)c1)(Nc1ccc(Cl)c(Cl)c1)Oc1ccc(Cl)cc1 [CBK263487],128.864,
CCOC(=O)C1(c2ccccc2)CCN(C(=O)CCN2CCN(C)CC2)CC1 [CBK132211],100,
O=C(O)CCCNC(=O)C(O)(c1ccccc1)c1ccccc1 [CBK269156],142.02,
O=C(O)C1C2CCC(O2)C1C(=O)NC1CCCCC1 (centres unmarked) [CBK286848],109.028,
CSc1ccc(CN2CCN(Cc3ccc(Br)cc3)CC2)cc1 [CBK027856],,100
O=[N+]([O-])c1ccc(-n2cnc3ccccc32)c([N+](=O)[O-])c1 [CBK261120],16.1468,
CNC(=O)Oc1ccc(C)cc1C(=O)N(C)C [CBK012319],115.139,
COc1ccc([C@]23CC[C@H](NC(=O)Nc4ccc(C#N)c(Cl)c4)C[C@H]2N(C)CC3)cc1OC [CBK066928T],105.621,
O=c1[nH]c(=S)[nH]c(O)c1CN1CCOCC1 [CBK262493],100,

# Some of the entries so far, with bars between the fields.
SMILES | % of control remaining (28.5 h, 10 µM; inhibitor) [%] | % of control remaining (28.5 h, 10 µM, inhibitor) [%]
CCOc1cccc(N2C(=O)/C(=C\c3ccc(-c4ccc(C(=O)O)c(Cl)c4)o3)C(=O)NC2=S)c1 [CBK263403] | 100 | 
CSc1nnc(C(N)Cc2c[nH]c3ccccc23)o1 (centres unmarked) [CBK269950C] | 137.185 | 
